Source: paper doi:10.1101/248278

T1: AC102 fused to a Twin-Strep-tag (Autographa californica multiple nucleopolyhedrovirus (AcMNPV)) (UniProt P41482)
T1 sequence: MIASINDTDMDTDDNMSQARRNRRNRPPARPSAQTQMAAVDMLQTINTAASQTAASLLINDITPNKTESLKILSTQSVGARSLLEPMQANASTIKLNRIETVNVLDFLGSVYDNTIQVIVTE

B1: E18 (protein, UniProt P41701 1-90)
chain: MIYTDPTTGATTSTDAPSTNYLNRLTPNMFLTILAVVVIIALIIIFVQSSSNGNSSGGNVPPNALGGFVNPLNATMRANPFMNTPQRQML
B2: E25 (protein, UniProt P41483 1-228)
chain: MWGIVLLIVLLILFYLYWTNALNFNSLTESSPSLGQSSDSVELDENKQLNVKLNNGRVANLRIAHGDNKLSQVYIAEKPLSIDDIVKEGSNKVGTNSVFLGTVYDYGIKSPNAASTSSNVTMTRGAANFDIKEFKSMFIVFKGVTPTKTVEDNGMLRFEVDNMIVCLIDPNTAPLSEREVRELRKSNCTLVYTRNAAAQQVLLENNFTVINAEQTAYLKNYKSYREMN
B3: VP80 (protein, UniProt Q00733 1-691)
chain: MNDSNSLLITRLAAQILSRNMQTVDVIVDDKTLSLEEKIDTLTSMVLAVNSPPQSPPRVTSSDLAASIIKNNSKMVGNDFEMRYNVLRMAVVFVKHYPKYYNETTAGLVAEIESNLLQYQNYVNQGNYQNIEGYDSLLNKAEECYVKIDRLFKESIKKIMDDTEAFEREQEAERLRAEQTAANALLERRAQTSADDVVNRADANIPTAFSDPLPGPSAPRYMYESSESDTYMETARRTAEHYTDQDKDYNAAYTADEYNSLVKTVLLRLIEKALATLKNRLHITTIDQLKKFRDYLNSDADAGEFQIFLNQEDCVILKNLSNLASKFFNVRCVADTLEVMLEALRNNIELVQPESDAVRRIVIKMTQEIKDSSTPLYNIAMYKSDYDAIKNKNIKTLFDLYNDRLPINFLDTSATSPVRKTSGKRSAEDDLLPTRSSKRANRPEINVISSEDEQEDDDVEDVDYEKESKRRKLEDEDFLKLKALEFSKDIVNEKLQKIIVVTDGMKRLYEYCNCKNSLETLPSAANYGSLLKRLNLYNLDHIEMNVNFYELLFPLTLYNDNDNSDKTLSHQLVNYIFLASNYFQNCAKNFNYMRETFNVFGPFKQIDFMVMFVIKFNFLCDMRNFAKLIDELVPNKQPNMRIHSVLVMRDKIVKLAFSNLQFQTFSKKDKSRNTKHLQRLIMLMNANYNVI
B4: VP39 (protein, UniProt P17499 1-347)
chain: MALVPVGMAPRQMRVNRCIFASIVSFDACITYKSPCSPDAYHDDGWFICNNHLIKRFKMSKMVLPIFDEDDNQFKMTIARHLVGNKERGIKRILIPSATNYQDVFNLNSMMQAEQLIFHLIYNNENAVNTICDNLKYTEGFTSNTQRVIHSVYATTKSILDTTNPNTFCSRVSRDELRFFDVTNARALRGGAGDQLFNNYSGFLQNLIRRAVAPEYLQIDTEELRFRNCATCIIDETGLVASVPDGPELYNPIRSSDIMRSQPNRLQIRNVLKFEGDTRELDRTLSGYEEYPTYVPLFLGYQIINSENNFLRNDFIPRANPNATLGGGAVAGPAPGVAGEAGGGIAV

Each molecule was assayed against T1, AC102 fused to a Twin-Strep-tag (Autographa californica multiple nucleopolyhedrovirus (AcMNPV)) (assay: affinity purification with mass spectrometry).
ODV-EC27 was tested, and the binding was “binds”. In the case of B1, the binding is reported as “binds”. B2 was tested, and the binding was “binds”. In the case of B3, the binding is reported as “binds”. With B4 the binding was “binds”.

Results are given in words; binding and its absence hold for the method and conditions named. Binding seen in cells or lysates may run through a third protein. A yes stands for co-enrichment or nearness to the bait. Other partners may have been found. Tags and fused reporters may be left off the sequences shown.
